Measured values: publication PMC12732632
Results are given in words; binding and its absence hold for the method and conditions named. Binding seen in cells or lysates may run through a third protein. A yes stands for co-enrichment or nearness to the bait. Other partners may have been found. No binding means not detected with the bait.

Amino acid sequences for entries named in this document (tags omitted). A change or cut given only in a name is not applied to a line headed by its entry. Chains listed by the source or under a name are the forms on record and can include a tag or linker.
UniProt P07451: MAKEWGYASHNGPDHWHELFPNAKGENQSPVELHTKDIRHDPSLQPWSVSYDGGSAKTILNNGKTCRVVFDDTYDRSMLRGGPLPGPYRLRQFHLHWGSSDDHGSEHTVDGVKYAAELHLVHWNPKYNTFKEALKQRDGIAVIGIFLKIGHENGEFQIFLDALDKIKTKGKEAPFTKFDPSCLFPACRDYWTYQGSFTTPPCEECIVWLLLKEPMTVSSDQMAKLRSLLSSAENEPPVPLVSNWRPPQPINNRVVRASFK
C-terminus-tagged mutCA3 (P07451, form named): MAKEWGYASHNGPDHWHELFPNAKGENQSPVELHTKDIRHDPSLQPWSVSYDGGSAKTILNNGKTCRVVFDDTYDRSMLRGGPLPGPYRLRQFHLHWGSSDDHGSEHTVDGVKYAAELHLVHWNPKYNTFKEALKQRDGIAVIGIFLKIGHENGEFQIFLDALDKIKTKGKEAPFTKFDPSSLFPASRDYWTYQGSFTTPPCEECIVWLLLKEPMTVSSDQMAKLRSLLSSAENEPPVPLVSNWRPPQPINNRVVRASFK
UniProt O95817: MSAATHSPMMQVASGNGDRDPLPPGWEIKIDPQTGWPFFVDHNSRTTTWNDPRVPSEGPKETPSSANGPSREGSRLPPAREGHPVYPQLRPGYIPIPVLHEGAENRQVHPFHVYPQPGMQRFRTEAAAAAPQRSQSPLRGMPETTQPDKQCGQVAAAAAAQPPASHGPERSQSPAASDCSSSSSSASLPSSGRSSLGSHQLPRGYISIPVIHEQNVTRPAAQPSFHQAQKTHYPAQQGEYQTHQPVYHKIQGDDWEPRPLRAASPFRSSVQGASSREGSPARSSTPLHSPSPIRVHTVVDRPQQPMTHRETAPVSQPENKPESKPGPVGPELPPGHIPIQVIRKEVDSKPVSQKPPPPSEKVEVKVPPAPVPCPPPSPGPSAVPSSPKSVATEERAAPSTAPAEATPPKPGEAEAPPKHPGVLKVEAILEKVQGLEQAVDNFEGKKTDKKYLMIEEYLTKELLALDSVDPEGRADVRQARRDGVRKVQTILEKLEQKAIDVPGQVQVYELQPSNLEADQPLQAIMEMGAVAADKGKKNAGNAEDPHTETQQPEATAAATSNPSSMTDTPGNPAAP
UniProt P0DMV8: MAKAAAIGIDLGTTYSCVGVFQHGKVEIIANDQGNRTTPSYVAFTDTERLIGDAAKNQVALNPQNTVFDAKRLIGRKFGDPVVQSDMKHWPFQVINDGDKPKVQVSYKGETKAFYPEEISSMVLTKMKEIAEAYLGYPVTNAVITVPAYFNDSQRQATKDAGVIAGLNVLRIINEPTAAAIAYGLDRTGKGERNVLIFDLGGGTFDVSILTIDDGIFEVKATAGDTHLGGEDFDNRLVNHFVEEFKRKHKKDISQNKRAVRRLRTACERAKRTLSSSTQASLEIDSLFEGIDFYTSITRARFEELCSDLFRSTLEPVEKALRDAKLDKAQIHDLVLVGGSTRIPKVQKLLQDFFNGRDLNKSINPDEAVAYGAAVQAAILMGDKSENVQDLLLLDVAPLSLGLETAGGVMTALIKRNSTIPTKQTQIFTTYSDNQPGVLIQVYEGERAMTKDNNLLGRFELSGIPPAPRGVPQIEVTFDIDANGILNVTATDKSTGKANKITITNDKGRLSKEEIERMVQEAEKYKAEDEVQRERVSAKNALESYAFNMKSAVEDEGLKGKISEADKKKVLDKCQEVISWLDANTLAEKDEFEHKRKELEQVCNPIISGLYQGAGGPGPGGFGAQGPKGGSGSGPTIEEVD
UniProt P11142: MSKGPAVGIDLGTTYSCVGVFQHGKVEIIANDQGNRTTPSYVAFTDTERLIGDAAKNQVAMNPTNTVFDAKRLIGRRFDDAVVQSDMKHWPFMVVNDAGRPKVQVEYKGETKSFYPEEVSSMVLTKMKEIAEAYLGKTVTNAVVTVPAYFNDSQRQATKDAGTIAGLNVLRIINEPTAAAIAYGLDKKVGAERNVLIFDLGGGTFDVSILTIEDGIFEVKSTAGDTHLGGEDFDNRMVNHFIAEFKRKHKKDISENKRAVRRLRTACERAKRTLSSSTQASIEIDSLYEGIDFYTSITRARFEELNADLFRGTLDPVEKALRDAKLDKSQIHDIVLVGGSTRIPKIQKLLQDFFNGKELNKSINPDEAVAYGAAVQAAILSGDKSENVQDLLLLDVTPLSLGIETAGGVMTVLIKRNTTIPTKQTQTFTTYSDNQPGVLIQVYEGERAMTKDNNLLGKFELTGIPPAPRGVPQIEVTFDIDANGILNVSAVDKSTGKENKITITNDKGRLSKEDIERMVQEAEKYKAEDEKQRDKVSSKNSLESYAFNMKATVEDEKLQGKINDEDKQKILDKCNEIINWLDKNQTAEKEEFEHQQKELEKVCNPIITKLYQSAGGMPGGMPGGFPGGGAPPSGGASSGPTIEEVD
UniProt P49792: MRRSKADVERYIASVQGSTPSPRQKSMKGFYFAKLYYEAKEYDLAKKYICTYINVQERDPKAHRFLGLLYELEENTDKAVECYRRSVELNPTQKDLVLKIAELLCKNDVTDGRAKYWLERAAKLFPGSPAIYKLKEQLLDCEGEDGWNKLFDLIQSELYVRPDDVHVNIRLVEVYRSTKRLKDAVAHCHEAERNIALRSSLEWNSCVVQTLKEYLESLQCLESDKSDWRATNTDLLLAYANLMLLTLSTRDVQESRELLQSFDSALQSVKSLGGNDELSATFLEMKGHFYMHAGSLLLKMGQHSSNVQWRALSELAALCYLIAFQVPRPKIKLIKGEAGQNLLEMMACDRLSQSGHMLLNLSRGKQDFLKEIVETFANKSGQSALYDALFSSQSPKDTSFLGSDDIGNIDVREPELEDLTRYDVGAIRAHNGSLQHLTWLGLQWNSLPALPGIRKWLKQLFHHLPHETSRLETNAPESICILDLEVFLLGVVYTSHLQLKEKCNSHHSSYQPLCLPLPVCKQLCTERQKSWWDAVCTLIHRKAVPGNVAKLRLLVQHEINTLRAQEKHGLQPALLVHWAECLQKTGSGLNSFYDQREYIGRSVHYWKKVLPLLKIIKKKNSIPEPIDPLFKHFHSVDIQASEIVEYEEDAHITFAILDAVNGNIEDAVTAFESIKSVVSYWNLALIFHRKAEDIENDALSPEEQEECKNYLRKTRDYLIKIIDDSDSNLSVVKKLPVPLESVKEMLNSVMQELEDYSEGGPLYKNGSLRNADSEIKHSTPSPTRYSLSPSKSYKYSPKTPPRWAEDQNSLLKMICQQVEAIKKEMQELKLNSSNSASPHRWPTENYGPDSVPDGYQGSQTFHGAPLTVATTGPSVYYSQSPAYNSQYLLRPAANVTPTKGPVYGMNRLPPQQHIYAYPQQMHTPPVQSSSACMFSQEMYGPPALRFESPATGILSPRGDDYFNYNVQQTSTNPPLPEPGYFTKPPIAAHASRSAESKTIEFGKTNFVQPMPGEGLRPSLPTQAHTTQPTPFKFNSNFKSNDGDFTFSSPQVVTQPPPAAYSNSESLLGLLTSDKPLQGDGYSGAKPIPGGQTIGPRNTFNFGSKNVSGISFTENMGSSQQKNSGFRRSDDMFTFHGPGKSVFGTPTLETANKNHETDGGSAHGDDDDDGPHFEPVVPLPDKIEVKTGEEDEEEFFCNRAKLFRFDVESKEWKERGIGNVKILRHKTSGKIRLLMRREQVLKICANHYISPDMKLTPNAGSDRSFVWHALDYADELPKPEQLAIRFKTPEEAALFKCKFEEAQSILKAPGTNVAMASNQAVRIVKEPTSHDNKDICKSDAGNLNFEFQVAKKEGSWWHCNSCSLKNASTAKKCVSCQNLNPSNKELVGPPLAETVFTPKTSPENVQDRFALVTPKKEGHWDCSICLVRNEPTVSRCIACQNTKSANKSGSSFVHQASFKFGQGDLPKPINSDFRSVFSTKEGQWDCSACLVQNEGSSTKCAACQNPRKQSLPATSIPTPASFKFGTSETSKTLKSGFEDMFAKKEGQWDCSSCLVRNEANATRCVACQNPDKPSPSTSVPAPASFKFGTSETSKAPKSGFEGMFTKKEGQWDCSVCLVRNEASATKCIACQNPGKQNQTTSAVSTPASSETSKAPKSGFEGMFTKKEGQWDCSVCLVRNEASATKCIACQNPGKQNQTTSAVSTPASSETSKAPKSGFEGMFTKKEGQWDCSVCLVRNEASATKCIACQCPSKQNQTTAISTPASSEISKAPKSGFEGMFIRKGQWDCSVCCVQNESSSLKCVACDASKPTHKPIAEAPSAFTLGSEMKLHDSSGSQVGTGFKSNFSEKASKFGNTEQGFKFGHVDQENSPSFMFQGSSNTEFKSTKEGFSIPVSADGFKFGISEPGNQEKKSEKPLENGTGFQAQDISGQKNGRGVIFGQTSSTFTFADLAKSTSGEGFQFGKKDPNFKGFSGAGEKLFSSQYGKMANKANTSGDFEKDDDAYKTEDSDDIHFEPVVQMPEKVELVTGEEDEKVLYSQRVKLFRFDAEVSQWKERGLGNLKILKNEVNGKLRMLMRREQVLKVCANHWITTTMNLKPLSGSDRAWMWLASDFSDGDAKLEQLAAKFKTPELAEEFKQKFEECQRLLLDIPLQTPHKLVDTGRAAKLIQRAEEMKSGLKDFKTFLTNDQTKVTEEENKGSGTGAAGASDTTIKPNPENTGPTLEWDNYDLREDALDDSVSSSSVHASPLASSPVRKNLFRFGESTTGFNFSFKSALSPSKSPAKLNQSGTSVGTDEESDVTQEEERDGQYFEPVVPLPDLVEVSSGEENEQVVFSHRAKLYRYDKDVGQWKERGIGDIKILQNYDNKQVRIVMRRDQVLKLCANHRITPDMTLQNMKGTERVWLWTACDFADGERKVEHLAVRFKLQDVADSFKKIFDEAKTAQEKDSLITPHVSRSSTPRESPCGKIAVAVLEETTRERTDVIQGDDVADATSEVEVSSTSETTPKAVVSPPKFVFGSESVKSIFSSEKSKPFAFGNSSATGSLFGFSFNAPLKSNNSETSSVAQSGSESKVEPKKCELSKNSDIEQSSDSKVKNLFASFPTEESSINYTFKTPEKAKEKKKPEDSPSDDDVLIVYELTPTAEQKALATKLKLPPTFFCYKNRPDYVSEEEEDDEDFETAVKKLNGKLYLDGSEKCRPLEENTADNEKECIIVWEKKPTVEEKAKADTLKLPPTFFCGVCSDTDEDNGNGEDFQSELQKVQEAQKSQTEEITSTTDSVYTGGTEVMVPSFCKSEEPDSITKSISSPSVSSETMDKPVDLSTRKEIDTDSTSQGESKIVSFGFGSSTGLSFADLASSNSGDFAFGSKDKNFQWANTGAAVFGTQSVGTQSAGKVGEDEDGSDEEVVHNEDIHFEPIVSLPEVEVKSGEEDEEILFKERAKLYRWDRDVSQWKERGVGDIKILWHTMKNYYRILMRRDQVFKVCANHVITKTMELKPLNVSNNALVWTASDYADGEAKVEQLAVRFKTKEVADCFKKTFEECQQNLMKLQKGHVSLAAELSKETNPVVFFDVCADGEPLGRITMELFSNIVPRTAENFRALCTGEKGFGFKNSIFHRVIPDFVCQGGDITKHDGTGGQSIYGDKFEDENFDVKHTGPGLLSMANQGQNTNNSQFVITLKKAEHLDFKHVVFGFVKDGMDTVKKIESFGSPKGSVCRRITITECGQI
UniProt P51784: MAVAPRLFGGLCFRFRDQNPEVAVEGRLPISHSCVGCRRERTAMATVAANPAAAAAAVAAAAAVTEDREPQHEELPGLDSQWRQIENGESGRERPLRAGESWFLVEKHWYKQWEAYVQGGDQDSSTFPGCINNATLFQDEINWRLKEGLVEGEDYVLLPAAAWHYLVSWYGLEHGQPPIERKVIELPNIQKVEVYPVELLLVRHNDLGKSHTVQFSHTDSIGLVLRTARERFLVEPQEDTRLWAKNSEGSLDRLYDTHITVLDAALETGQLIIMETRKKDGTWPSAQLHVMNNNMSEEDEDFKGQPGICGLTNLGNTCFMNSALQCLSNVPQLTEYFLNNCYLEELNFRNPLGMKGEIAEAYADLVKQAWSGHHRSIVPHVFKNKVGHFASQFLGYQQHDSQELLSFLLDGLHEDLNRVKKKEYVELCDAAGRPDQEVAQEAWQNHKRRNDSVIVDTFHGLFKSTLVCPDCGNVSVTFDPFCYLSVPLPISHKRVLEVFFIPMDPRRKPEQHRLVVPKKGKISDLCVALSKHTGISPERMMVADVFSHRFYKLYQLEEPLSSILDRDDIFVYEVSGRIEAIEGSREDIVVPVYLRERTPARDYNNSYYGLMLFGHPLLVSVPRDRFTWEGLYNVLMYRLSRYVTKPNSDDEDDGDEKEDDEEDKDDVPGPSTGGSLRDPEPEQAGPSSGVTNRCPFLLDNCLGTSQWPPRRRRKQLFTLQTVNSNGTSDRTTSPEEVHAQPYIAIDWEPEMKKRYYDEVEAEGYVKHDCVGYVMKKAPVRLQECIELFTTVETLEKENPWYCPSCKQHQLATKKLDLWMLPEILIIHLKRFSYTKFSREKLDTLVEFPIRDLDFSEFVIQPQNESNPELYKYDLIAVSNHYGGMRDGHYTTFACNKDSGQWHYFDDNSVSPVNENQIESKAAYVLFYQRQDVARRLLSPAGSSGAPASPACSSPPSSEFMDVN

Experiments:
Assay in all cases: affinity purification with mass spectrometry; HaloTag-fused CA3 or mutCA3 expressed in HEK293T; cleared lysate diluted in 1x Tris-buffered saline pH 7.5, incubated with HaloLink Resin at room temperature for 15 min, four washes, SDS elution; LC-MS label-free quantitation against the HaloTag vector only control (triplicate)
[1] = molecular target: C-terminus-tagged CA3 WT (carbonic anhydrase 3, wild type, HaloTag at the C-terminus) (UniProt P07451)
[2] = molecular target: N-terminus-tagged mutCA3 (carbonic anhydrase 3 with both surface-exposed cysteines mutated to serine, HaloTag at the N-terminus) (UniProt P07451)
[3] = molecular target: C-terminus-tagged mutCA3 (carbonic anhydrase 3 with both surface-exposed cysteines mutated to serine, HaloTag at the C-terminus) (UniProt P07451)
[4] = molecular target: N-terminus-tagged CA3 WT (carbonic anhydrase 3, wild type, HaloTag at the N-terminus) (UniProt P07451)

Measured: binding

Bcl2-Associated Athanogene 3 (from UniProt O95817 1-575)
no binding: [1] | [2] | [3]

Heat shock 70 kDa protein 1A (from UniProt P0DMV8 1-641)
binds: all assays above

Heat shock 70 kDa protein 8 (from UniProt P11142 1-646)
binds: all assays above

Keratin 6A (from UniProt P02538 1-564)
no binding: [1] | [2]

RAS-related nuclear protein binding protein 2 (from UniProt P49792 1-3224)
no binding: all assays above

Ubiquitin specific protease 11 (from UniProt P51784 1-963) (enzyme)
no binding: all assays above
